Measured values: paper PMC5012566, “A Cell-Based Assay for Measuring Endogenous BcrAbl Kinase Activity and Inhibitor Resistance” (PLoS ONE, 2016)

What was measured:
[1] = system: K562-NR cells; assay: cells; conditions: Homo sapiens, read-out: Growth Inhibition IC50 (95% CI)
[2] = system: K562-IR cells; assay: cells; conditions: Homo sapiens, read-out: Growth Inhibition IC50 (95% CI)

## Cc1ccc(NC(=O)c2ccc(CN3CCN(C)CC3)cc2)cc1Nc1nccc(-c2cccnc2)n1 [imatinib]
[1]
  IC50: 9.01 µM
[2]
  IC50: 1.33 µM
